Here are results for one substance from paper doi:10.1101/2024.05.15.594354.

Chains of the proteins cited; added tags and fusions are not shown. Lines headed by an entry give the natural chain unless they say otherwise; changes in a name come on top. Residues count along the entry.
UniProt P02769, residues 25-607: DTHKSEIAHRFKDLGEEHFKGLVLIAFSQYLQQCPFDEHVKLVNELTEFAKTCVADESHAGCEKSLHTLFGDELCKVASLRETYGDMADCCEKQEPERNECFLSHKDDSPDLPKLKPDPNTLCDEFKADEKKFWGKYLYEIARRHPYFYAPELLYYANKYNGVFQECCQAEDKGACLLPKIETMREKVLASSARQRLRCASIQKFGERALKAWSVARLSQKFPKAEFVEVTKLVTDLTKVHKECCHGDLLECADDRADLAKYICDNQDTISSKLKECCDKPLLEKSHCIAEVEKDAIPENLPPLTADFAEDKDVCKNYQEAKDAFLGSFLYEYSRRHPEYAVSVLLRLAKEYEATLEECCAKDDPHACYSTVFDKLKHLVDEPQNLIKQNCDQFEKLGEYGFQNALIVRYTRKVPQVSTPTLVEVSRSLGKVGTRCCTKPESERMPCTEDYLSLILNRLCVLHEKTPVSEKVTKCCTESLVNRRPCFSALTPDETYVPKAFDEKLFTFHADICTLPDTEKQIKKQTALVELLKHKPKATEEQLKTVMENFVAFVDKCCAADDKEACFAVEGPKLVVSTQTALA
UniProt Q9HCJ2: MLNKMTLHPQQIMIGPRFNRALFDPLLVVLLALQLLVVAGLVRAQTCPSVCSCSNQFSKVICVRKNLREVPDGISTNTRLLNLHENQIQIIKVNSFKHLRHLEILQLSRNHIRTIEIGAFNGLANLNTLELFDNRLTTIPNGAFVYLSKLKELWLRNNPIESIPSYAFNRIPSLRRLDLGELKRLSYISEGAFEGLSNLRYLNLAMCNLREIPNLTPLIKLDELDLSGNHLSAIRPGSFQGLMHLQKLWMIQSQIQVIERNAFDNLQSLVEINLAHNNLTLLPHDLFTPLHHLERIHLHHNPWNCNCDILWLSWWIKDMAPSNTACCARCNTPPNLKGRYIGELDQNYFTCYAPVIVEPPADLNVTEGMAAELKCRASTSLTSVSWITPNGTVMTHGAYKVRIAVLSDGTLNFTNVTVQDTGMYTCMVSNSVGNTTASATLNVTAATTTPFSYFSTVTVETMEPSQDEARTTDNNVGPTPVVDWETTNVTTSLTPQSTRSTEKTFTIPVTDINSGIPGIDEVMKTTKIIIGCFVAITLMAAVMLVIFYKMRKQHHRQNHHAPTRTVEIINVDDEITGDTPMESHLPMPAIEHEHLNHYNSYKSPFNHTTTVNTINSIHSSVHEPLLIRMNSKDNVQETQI

Results are given in words; binding and its absence hold for the method and conditions named. For part of these data: Binding can be weak; no strength is given.

Test in all cases: ELISA
For assay [1], the target named is T1, anti-NGL-1 peptide (NPYMSNNE) (human).
T1 sequence (peptide): NPYMSNNE

The target of assay [2] is Bovine Serum Albumin (BSA) (bovine) (UniProt P02769).
The target in assay [3] is T2, Netrin G1 (NetG1), recombinant (UniProt Q9Y2I2).
T2 sequence: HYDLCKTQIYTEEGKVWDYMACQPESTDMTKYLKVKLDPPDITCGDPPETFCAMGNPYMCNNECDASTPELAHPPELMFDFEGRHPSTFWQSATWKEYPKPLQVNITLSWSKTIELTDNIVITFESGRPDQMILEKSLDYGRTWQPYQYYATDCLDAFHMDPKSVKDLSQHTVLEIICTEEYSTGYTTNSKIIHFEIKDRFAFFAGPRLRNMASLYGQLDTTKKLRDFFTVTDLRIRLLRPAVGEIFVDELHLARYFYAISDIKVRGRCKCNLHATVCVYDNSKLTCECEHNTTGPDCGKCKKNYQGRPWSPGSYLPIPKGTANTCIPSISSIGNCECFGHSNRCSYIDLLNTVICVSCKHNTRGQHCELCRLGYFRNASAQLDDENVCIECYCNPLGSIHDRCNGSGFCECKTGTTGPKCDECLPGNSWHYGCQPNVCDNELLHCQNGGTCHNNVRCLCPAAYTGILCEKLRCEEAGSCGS

Consider “Netrin G1 Ligand (NGL-1), recombinant (from UniProt Q9HCJ2) (receptor)”, for which the values for the binding entry in assay [1], in assay [2] and in assay [3] were “binds”, “no binding (tested: 50 nM)” and “binds”, respectively.
